Experimental data from the supplement of paper PMC12823440, “Inhibitors supercharge kinase turnover through native proteolytic circuits” (Nature, 2025).
Structures can show the parent of a compound that is named as a salt. The list shows a part of the results. Hit calls seldom repeat between salt and free forms of one compound.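 Kinases were expressed as nanoluciferase fusions in K562 cells and luminescence was read every 4 h between 2 and 18 h as percent of control, DMSO set to 100% and a positive control to 0%. A time point counts as decreased when the signal drops significantly (2 sigma). The hit call is the authors' own, does not follow from the count of time points alone, and its rule is not shown.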

The chains behind the UniProt entries cited, without tags or fusion partners. Where a name states a change or a piece, a line headed by the entry shows the natural chain unless it says otherwise.
UniProt P29317, whole entry: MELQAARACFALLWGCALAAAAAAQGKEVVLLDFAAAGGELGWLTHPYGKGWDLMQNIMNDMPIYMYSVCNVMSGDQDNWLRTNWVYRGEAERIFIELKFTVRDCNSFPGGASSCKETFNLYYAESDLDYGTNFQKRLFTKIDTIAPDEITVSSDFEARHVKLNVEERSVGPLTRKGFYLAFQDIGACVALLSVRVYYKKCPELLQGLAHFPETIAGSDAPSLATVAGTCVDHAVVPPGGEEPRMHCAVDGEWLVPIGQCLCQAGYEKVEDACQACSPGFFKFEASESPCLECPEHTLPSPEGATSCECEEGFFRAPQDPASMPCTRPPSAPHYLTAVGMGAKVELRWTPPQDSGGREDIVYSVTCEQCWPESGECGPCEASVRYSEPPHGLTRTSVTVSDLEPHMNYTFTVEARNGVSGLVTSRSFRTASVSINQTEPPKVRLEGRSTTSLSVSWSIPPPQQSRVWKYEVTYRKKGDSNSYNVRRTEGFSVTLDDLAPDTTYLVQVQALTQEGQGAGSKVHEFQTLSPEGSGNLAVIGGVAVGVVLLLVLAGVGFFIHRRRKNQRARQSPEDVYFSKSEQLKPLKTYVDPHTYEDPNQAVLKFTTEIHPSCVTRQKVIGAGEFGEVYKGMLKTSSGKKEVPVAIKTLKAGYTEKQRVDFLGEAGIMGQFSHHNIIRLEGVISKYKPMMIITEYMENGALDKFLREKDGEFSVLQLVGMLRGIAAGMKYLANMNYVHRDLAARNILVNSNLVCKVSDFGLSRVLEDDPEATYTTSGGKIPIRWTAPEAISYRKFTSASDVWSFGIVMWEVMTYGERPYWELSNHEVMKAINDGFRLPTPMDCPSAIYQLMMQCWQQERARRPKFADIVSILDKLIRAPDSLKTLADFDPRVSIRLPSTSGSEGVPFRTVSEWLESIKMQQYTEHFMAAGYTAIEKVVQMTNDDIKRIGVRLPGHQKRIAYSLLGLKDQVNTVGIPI
UniProt Q15303, whole entry R711C: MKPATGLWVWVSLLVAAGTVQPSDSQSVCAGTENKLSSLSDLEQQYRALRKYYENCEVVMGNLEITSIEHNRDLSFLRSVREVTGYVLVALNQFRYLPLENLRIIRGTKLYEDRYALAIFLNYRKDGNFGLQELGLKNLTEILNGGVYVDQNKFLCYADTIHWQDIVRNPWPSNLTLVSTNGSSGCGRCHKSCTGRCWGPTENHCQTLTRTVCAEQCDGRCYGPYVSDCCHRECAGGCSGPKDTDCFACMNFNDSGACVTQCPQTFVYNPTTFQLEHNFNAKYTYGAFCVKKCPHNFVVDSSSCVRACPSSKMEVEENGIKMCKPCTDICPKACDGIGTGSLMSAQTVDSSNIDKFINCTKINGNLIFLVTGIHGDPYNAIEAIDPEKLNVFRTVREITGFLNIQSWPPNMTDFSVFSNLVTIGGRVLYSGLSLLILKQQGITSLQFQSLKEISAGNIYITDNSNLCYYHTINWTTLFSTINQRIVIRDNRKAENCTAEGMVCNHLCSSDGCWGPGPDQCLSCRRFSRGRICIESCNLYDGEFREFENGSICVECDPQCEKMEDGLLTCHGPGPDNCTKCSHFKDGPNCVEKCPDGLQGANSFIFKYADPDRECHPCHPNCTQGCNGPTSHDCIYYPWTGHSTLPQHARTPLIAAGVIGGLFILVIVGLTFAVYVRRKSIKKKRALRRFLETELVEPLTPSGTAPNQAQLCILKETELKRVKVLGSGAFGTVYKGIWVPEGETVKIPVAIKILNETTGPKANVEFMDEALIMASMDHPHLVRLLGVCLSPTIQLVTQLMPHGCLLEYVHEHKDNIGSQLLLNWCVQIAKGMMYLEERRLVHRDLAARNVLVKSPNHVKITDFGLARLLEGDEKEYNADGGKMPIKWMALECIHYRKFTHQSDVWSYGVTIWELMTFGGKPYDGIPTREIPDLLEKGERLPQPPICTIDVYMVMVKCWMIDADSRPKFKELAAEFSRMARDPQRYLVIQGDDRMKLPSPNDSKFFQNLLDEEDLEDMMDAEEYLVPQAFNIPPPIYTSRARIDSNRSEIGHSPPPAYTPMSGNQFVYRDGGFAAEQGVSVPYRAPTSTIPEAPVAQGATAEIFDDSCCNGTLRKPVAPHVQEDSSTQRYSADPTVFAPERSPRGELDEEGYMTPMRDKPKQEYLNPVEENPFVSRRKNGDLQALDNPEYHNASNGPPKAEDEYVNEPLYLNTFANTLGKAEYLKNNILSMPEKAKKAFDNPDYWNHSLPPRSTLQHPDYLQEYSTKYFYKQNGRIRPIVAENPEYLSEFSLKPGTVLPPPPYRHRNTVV
UniProt O75460: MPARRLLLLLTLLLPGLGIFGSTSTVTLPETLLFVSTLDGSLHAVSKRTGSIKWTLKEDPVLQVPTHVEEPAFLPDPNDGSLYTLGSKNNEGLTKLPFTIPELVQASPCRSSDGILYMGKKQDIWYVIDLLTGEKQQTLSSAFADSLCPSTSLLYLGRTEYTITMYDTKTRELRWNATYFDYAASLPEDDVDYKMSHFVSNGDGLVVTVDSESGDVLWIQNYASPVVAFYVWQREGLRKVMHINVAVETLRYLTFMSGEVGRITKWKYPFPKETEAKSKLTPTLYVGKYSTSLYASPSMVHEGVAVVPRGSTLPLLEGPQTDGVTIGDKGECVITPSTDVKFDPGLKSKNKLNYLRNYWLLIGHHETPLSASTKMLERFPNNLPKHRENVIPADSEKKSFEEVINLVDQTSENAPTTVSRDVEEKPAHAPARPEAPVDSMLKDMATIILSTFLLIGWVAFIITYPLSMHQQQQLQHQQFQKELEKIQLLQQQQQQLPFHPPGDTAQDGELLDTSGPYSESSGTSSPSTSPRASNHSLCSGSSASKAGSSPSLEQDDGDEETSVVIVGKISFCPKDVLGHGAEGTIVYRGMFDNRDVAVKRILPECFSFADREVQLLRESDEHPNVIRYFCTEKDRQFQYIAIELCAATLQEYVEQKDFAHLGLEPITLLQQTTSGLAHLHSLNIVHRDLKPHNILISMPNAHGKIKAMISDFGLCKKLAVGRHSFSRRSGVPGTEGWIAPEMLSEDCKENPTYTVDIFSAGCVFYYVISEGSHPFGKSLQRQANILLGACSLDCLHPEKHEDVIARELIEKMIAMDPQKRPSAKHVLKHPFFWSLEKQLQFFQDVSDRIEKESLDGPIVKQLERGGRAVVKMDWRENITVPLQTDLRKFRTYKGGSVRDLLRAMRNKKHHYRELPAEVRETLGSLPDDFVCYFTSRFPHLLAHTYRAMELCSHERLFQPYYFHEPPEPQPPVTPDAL
UniProt P11362, whole entry, looked up: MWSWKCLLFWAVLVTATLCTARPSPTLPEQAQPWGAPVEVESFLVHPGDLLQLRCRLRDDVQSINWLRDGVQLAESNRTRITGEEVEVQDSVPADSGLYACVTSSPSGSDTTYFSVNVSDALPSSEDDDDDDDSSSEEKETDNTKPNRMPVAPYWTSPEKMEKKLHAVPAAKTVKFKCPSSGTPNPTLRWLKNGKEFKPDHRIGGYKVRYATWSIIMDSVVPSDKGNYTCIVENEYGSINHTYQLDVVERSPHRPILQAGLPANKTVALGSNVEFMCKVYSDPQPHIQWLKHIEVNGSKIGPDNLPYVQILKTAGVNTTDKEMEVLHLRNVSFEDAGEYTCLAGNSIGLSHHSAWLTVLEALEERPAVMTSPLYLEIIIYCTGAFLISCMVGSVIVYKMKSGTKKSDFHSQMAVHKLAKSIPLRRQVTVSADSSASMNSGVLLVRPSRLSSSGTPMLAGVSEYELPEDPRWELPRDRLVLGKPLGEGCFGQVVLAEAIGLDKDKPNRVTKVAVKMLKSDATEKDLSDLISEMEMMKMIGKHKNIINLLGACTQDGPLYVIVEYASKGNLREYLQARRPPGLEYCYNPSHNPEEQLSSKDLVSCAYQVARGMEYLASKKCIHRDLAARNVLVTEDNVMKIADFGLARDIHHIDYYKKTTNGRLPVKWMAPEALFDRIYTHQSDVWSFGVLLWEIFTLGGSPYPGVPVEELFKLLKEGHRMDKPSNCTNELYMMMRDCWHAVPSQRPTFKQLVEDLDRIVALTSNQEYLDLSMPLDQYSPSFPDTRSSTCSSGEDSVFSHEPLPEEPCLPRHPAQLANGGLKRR
UniProt P21802, whole entry, looked up: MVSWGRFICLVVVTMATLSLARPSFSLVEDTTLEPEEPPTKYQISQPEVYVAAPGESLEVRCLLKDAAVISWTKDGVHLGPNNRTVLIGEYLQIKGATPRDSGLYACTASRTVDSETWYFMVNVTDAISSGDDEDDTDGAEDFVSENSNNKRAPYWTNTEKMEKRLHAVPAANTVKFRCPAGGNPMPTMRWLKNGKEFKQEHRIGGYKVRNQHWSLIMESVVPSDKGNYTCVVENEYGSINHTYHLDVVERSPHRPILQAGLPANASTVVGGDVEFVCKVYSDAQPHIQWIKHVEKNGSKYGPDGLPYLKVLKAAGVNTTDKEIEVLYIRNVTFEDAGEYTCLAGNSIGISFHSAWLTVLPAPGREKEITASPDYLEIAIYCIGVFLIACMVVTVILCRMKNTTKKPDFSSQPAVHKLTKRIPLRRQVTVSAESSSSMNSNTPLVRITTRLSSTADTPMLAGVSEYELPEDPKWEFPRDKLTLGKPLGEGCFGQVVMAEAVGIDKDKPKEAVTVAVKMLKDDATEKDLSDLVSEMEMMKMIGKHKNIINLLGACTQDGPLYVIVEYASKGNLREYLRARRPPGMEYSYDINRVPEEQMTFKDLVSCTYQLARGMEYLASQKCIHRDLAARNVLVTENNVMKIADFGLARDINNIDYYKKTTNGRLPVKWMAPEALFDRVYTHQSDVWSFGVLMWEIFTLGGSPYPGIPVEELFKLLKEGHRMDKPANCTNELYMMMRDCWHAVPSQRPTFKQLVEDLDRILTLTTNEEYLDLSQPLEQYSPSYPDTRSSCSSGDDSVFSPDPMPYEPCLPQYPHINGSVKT
UniProt P22607, whole entry, looked up: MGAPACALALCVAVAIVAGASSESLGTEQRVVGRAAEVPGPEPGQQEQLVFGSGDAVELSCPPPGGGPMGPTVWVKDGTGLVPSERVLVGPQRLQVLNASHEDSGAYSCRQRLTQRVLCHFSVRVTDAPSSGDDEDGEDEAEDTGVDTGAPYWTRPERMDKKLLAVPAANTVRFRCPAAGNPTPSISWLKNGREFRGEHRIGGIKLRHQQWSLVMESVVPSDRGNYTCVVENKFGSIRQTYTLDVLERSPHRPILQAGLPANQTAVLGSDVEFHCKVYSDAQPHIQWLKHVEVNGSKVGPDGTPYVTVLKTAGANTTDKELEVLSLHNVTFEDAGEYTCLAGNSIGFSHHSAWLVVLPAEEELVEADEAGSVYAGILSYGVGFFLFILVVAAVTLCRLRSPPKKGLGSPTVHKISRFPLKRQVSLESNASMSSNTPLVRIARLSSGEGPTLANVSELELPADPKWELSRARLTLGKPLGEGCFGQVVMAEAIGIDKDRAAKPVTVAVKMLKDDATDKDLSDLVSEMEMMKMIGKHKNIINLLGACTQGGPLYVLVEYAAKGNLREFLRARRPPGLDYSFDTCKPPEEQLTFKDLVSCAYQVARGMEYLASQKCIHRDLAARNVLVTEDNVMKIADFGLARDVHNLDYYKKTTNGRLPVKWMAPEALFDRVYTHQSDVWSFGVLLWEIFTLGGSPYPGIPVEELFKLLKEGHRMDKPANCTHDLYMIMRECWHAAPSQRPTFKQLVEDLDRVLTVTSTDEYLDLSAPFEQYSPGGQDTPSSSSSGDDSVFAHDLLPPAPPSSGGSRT

Experiments:
Assay in all cases: number of time points (of 5) at which kinase-Nluc abundance scored as decreased, DMSO-normalised (count); higher = more persistent destabilization
Settings in all cases: K562; 2-18 h
EGFR_L861Q = EGFR_L861Q (UniProt P00533)
EGFR_T790M = EGFR_T790M (UniProt P00533)
EPHA2 = EPHA2 (UniProt P29317)
ERBB3 = ERBB3 (UniProt P21860)
[1] = target: ERBB4_R711C (clone: ERBB4_mut) (UniProt Q15303)
ERN1 = ERN1 (UniProt O75460)
FGFR1 = FGFR1 (UniProt P11362)
FGFR2 = FGFR2 (UniProt P21802)
FGFR3 = FGFR3 (UniProt P22607)
FGR = FGR (UniProt P09769)

Measured: number of time points

COc1ccc(N(C(=O)Oc2c(C)cccc2C)c2ccnc(Nc3ccc(N4CCN(C)CC4)cc3)n2)c(OC)c1 (2.5 µM)
0: all assays above

O=C(N[C@@H](COc1ccc2[nH]c(=O)[nH]c2c1)c1ccccc1)c1cccn(Cc2ccc(F)c(F)c2)c1=O (2.5 µM)
0: all assays above

Cn1cc(C2=C(c3cn(C4CCN(Cc5ccccn5)CC4)c4ccccc34)C(=O)NC2=O)c2ccccc21 [Enzastaurin] (10 µM)
0: all assays above

CN(C)C(=O)c1ccc(Cn2c(C(=O)O)cc3c(Br)cc(Sc4ccc(Cl)c(Cl)c4)cc32)cc1 [Rheb inhibitor NR1] (10 µM)
0: all assays above

NCCc1cn(S(=O)(=O)c2c(Cl)nc3sccn23)c2ccccc12 (10 µM)
0: all assays above

O=c1[nH]c2ccccc2n1C1CCN(CCCC(c2ccc(F)cc2)c2ccc(F)cc2)CC1 [Pimozide] (2.5 µM)
0: all assays above

C[C@H]1CC[C@]2(NC1)O[C@H]1C[C@H]3[C@@H]4CC[C@H]5C[C@@H](O[C@@H]6O[C@H](CO)[C@H](O[C@@H]7O[C@H](CO)[C@@H](O)[C@H](O[C@@H]8OC[C@@H](O)[C@H](O)[C@H]8O)[C@H]7O[C@@H]7O[C@H](CO)[C@@H](O)[C@H](O)[C@H]7O)[C@H](O)[C@H]6O)CC[C@]5(C)[C@H]4CC[C@]3(C)[C@H]1[C@@H]2C [Tomatine] (2.5 µM)
1: [1]
4: FGFR2
5: FGFR1
0: all other assays above

N#CC(C#N)=Cc1ccc([N+](=O)[O-])c(O)c1 (10 µM)
0: all assays above

C[C@@H]1CC[C@H]2[C@@H](C)C(=O)O[C@@H]3O[C@@]4(C)CC[C@@H]1[C@]32OO4 [Artemisinin] (10 µM)
4: ERN1
0: all other assays above

Cc1[nH]ncc1-c1cc2nc([C@H]3CC4CCN3CC4)[nH]c(=O)c2s1 [(R)-Simurosertib] (10 µM)
0: all assays above

C[S+]([O-])/C=C/CCN=C=S (stereo not given) [Sulforaphene] (10 µM)
0: all assays above

CCN1CCN(C(=O)Cc2ccc(Nc3ncc(F)c(Nc4ccc(C(=O)Nc5ccccc5Cl)cc4)n3)cc2)CC1 (2.5 µM)
0: all assays above

O=c1ccc2cc(O[C@@H]3O[C@H](CO)[C@@H](O)[C@H](O)[C@H]3O)c(O)cc2o1 [Esculin] (10 µM)
0: all assays above

CCCS(=O)(=O)Nc1ccc(F)c(-n2cc(-c3cncnc3)c3nc(N(C)C4CCN(CC)CC4)ccc32)c1F (2 µM)
0: all assays above

Nc1ncnc2c1ncn2[C@@H]1O[C@@H]2COP(O)(=S)O[C@H]2[C@H]1O (stereo not given in full) [Sp-cAMPS (sodium salt)] (10 µM)
0: all assays above

CC(C)(C)c1cc(C=C(C#N)C#N)cc(Br)c1O (2.5 µM)
0: all assays above

C=CC(=O)N[C@H]1C=C(C)c2c(-c3cnc4ccccc4c3)c3c(N)ncnc3n2C1 (10 µM)
0: all assays above

O=C1C=CC[C@@H]2[C@H]3CCCN4CCC[C@@H](CN12)[C@@H]34 [Sophocarpine (monohydrate)] (2.5 µM)
0: all assays above

CCOC(=O)c1c(/C(C#N)=C\N)c2ccc(Cl)c(Cl)c2n1C (10 µM)
0: all assays above

CC(=O)Oc1ccc(/C=C/c2cc(OC(C)=O)cc(OC(C)=O)c2)cc1 [Triacetylresveratrol] (10 µM)
0: all assays above

COc1ccc(/C=C/c2cc(OC)c(OC)c(OC)c2)cc1 (2.5 µM)
1: EGFR_T790M
2: EGFR_L861Q | [1] | ERN1 | FGFR1
0: all other assays above

COC[C@H]1OC(=O)c2coc3c2[C@@]1(C)C1=C(C3=O)[C@@H]2CCC(=O)[C@@]2(C)C[C@H]1OC(C)=O [Wortmannin] (2.5 µM)
2: [1] | FGFR2
3: ERBB3
0: all other assays above

Pulled one by one from above (2):
CCCS(=O)(=O)Nc1ccc(F)c(-n2cc(-c3cncnc3)c3nc(N(C)C4CCN(CC)CC4)ccc32)c1F (2 µM)
0: all assays above

COc1ccc(N(C(=O)Oc2c(C)cccc2C)c2ccnc(Nc3ccc(N4CCN(C)CC4)cc3)n2)c(OC)c1 (2.5 µM)
0: all assays above

Remaining list, next part.

COc1ccc2c(c[n+](C)c3c4cc5c(cc4ccc23)OCO5)c1OC [Chelerythrine (chloride)] (10 µM)
3: EPHA2
0: all other assays above

Cc1ccccc1-n1c(Cn2cnc3c(N)ncnc32)nc2cccc(C)c2c1=O (10 µM)
0: all assays above

O=C(/C=C/c1ccccc1)OC[C@H]1O[C@@H](O[C@@H]2OC=C[C@H]3[C@H](O)[C@@H]4O[C@]4(CO)[C@@H]23)[C@H](O)[C@@H](O)[C@@H]1O [Picroside I] (10 µM)
0: all assays above

CC1=C[C@]23C(=O)[C@@H](C=C(CO)[C@@H](O)[C@]2(O)[C@H]1O)[C@H]1[C@@H](C[C@H]3C)C1(C)C [Ingenol] (10 µM)
0: all assays above

O=C(O)c1sc2cc(Cl)ccc2c1Cl (10 µM)
0: all assays above

C[C@H]1CC[C@]2(NC1)O[C@H]1C[C@H]3[C@@H]4CC[C@H]5C[C@@H](O)CC[C@]5(C)[C@H]4CC[C@]3(C)[C@H]1[C@@H]2C [Tomatidine (hydrochloride)] (10 µM)
0: all assays above

CC1C(=O)OC2C(O)C34C5OC(=O)C3(OC3OC(=O)C(O)C34C(C(C)(C)C)C5O)C12O (stereo not given) [Ginkgolide C] (10 µM)
0: all assays above

Cc1n[nH]cc1-c1cc2nc([C@@H]3CC4CCN3CC4)[nH]c(=O)c2s1 [Simurosertib] (2.5 µM)
0: all assays above

C[C@H]1CC[C@]2(NC1)O[C@H]1C[C@H]3[C@@H]4CC[C@H]5C[C@@H](O)CC[C@]5(C)[C@H]4CC[C@]3(C)[C@H]1[C@@H]2C [Tomatidine] (2 µM)
0: all assays above
